Our source for the binding signal values is PMC7819943, “Rice protein-binding microarrays: a tool to detect cis-acting elements near promoter regions in rice”.

Protein sequences, listed by entry. Tags and fused reporters are not part of them.
UniProt Q0JBA9, entry or part of it: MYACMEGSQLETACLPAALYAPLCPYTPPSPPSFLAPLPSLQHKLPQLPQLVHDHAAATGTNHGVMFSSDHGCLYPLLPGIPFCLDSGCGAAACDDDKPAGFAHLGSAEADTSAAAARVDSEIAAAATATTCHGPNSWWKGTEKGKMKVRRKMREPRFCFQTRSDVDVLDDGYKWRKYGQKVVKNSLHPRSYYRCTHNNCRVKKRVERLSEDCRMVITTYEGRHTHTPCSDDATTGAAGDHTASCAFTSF

Some of the results follow.

The target of this test is OsWRKY34 (Oryza sativa, UniProt Q0JBA9 1-250). Put plainly: protein-binding microarray (RPBM); PBS, 2% BSA, 51.3 ng/ul salmon testes DNA, 50 uM zinc acetate, 200 nM TF, 25 C, 1 h; high values mean tight binding. The conditions noted are these: protein: recombinant; tags: N-terminal polyhistidine and DsRed monomer fusion (pET32a); label: CyDye5-dUTP incorporated in the synthesized complementary strand; 3' TTTTT single-stranded linker to array surface; dsDNA, one strand shown. The method, boiled down: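 An Axon 4000B scanner gave the binding signal as per-feature fluorescence intensity in arbitrary units. This followed washing of a custom Agilent array that had been incubated for 1 h at 25 °C with 200 nM protein in PBS, 2% BSA, salmon testes DNA and 50 µM zinc acetate. The proteins were transcription factors fused at the N-terminus to polyhistidine and DsRed, expressed in E. coli BL21-CodonPlus and purified on Ni–NTA.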
Regarding “CCTATAATTTTATTTTTAAGATCGGCTTTCACCCTTACACCGGAGTCACCTAGTGCAG”, the binding signal was 8800 fluorescence intensity (a.u.).

On to “ATTATCGTAAAATCATTTTTTTTCATCACCACGTGTCTTCCGGAGTCACCTAGTGCAG”, for which the binding signal is 8580 fluorescence intensity (a.u.).

“GCATCCCGCGCCGTCGCCTCACCGCTATCCCTCATCACCCCGGAGTCACCTAGTGCAG”: the binding signal was 12900 fluorescence intensity (a.u.).

In the case of “GCACACACACTATAGCATAGCACTACTCTCTTCTTCTTTACGGAGTCACCTAGTGCAG”, the binding signal was 10900 fluorescence intensity (a.u.).

Regarding “ATCCAACCCTATAACTTCTTATATTCTAGGACGGAGAGACCGGAGTCACCTAGTGCAG”, the binding signal is 8080 fluorescence intensity (a.u.).

For “CCTGTTTTACTGCATGCTTTAGATATCTTTGCCTATGTAGCGGAGTCACCTAGTGCAG”, the binding signal was 9780 fluorescence intensity (a.u.).

As for “CTTCGACTTCCACTGGATCCTGCTCGACGCGCTCGACATGCGGAGTCACCTAGTGCAG”, the binding signal is 9140 fluorescence intensity (a.u.).

With “TAGATGTGATAGGGTGTAAAATTTTTGTGTGTGAACTAAACGGAGTCACCTAGTGCAG”, the binding signal was 8240 fluorescence intensity (a.u.).

For “TGTGGATGGCGTGGATAAGTTGACAGTTGAAAATACAAAACGGAGTCACCTAGTGCAG”, the binding signal is 9130 fluorescence intensity (a.u.).

On to “ACTTGGACTCTTTTTTTTTCTCCGATTAATGTGGAAATTTCGGAGTCACCTAGTGCAG”, for which the binding signal was 8110 fluorescence intensity (a.u.).

On to “ATGGGTAGGAGGGTTATTAATTGATGATGTGGTTTGGTTACGGAGTCACCTAGTGCAG”, for which the binding signal is 9100 fluorescence intensity (a.u.).

Regarding “AACCTCACACGTCTTCGTCCCTCCAGCCTGTCCCCGGTCCCGGAGTCACCTAGTGCAG”, the binding signal is 10100 fluorescence intensity (a.u.).

In the case of “TTCCTCGGTTTCATATTATAAGTCATTTAACCTTTTTCTACGGAGTCACCTAGTGCAG”, the binding signal was 11300 fluorescence intensity (a.u.).

For the sequence “CATATACACACAACTTTTTCAGTCACATTGTCTTCAATTTCGGAGTCACCTAGTGCAG”, the binding signal was 10700 fluorescence intensity (a.u.).

Consider “CGCCGGCTCCTCGTCCTCGTCACCACCACCACGCCAACATCGGAGTCACCTAGTGCAG”, for which the binding signal is 8410 fluorescence intensity (a.u.).

As for “CGGCTTTGACCAGTGCCGCGCCCTCTCCTCTCTGTCGCCTCGGAGTCACCTAGTGCAG”, the binding signal was 8270 fluorescence intensity (a.u.).

With “ACAGTAGCAGGGGTAATTTTGATTTTCTTTCCTATCAAATCGGAGTCACCTAGTGCAG”, the binding signal was 16000 fluorescence intensity (a.u.).

For the sequence “GTGTGTAGTGGTGTTTGTGCGCGGCCTCTAATATCATGTACGGAGTCACCTAGTGCAG”, the binding signal is 11600 fluorescence intensity (a.u.).

On to “GCCGCTTAACCACCTCCCTCCGTAACAAACTCCTCATTTCCGGAGTCACCTAGTGCAG”, for which the binding signal was 9650 fluorescence intensity (a.u.).

As to “CCATGACTTTTTAAGTGCCTACGCTTGTCGATTTCTGCACCGGAGTCACCTAGTGCAG”, the binding signal is 10700 fluorescence intensity (a.u.).

For the sequence “AAGCGAGCTTACGTATTGACGAATTTACGCTTTCTGGTCACGGAGTCACCTAGTGCAG”, the binding signal is 8160 fluorescence intensity (a.u.).

Take “GCGGTGGCGTTTAATTTCCTTTTGTTTTAAATTTCTTTCACGGAGTCACCTAGTGCAG”: the binding signal is 8560 fluorescence intensity (a.u.).

“TTCTATCTTTCTTCATCGTATCGTTCTAATTTAACCAAACCGGAGTCACCTAGTGCAG”: the binding signal was 9120 fluorescence intensity (a.u.).

For the sequence “CTCTCTCCTTCTCCTCACCTCGCCGCTCGCTGCTAAACCCCGGAGTCACCTAGTGCAG”, the binding signal is 8360 fluorescence intensity (a.u.).

With “ATCAAACTTCCTGTATCTTTACTCCTTTAAATGTTCCTTGCGGAGTCACCTAGTGCAG”, the binding signal is 9310 fluorescence intensity (a.u.).

“TTTTAATCATATATGACCTTGCGATCATCTCATCAAACAGCGGAGTCACCTAGTGCAG”: the binding signal was 8250 fluorescence intensity (a.u.).

In the case of “TTATCTCTATCCGTCGTCGTCGCTCTTGTCGCCGTCGCGTCGGAGTCACCTAGTGCAG”, the binding signal is 8670 fluorescence intensity (a.u.).

With “CTCGTGTTCATGTGTTAGGCTAGGTCGGGATGGCATTGTCCGGAGTCACCTAGTGCAG”, the binding signal is 10900 fluorescence intensity (a.u.).

Turning to “GAGCTCTCCGCCGGCTCTCCACCTTCAAACAGCAACAAATCGGAGTCACCTAGTGCAG”, the binding signal was 8130 fluorescence intensity (a.u.).

For the sequence “TGCTTAGCCGTACATTGCCTGTCCAAACCCCATTTGACTCCGGAGTCACCTAGTGCAG”, the binding signal was 10300 fluorescence intensity (a.u.).

For “AAATTGTCATTGTTTGCTGGCTGATTTTATCATCATTTTCCGGAGTCACCTAGTGCAG”, the binding signal is 12700 fluorescence intensity (a.u.).

As for “CACCCACGCGTGCACCGCTTGCACCCGCGCGTGCAGAACCCGGAGTCACCTAGTGCAG”, the binding signal was 9330 fluorescence intensity (a.u.).

With “ACCAAATCATTCGTTGTTTTATTATAATTAGCTTTCTTTTCGGAGTCACCTAGTGCAG”, the binding signal is 10800 fluorescence intensity (a.u.).

Turning to “TTGTTCAGGTGTTTCTTTTCTCTGTTTCTTCAGTGCTTGACGGAGTCACCTAGTGCAG”, the binding signal is 12500 fluorescence intensity (a.u.).

Regarding “TCCTCTCTGTCTCCGCCGATCTGCTCTGCCGCGACGCGCCCGGAGTCACCTAGTGCAG”, the binding signal was 8180 fluorescence intensity (a.u.).

Turning to “AGTTCAGTAATAAAAATCACCTTTTACTATGTTGTTATATCGGAGTCACCTAGTGCAG”, the binding signal is 8510 fluorescence intensity (a.u.).

With “ATCCCTCGAATTCATCGTCTTCCTCAGCTCACCAAAATCCCGGAGTCACCTAGTGCAG”, the binding signal is 8180 fluorescence intensity (a.u.).

Regarding “CTTTTTCTCCATCCGTCTCTATAAATACACGGACACACAACGGAGTCACCTAGTGCAG”, the binding signal is 10000 fluorescence intensity (a.u.).

Regarding “CGCCGTCGAGCTCCGCTTCGCTTCCTCGCGTCCTGGTCCACGGAGTCACCTAGTGCAG”, the binding signal was 10000 fluorescence intensity (a.u.).

Regarding “TGATGATTGGTTTCTTGGCCAATGGTTTGGTTGTTGTTTTCGGAGTCACCTAGTGCAG”, the binding signal is 9440 fluorescence intensity (a.u.).

For the sequence “GATCATCGATACGTCGGCTCGTCCATCCGGCATTTAAAGTCGGAGTCACCTAGTGCAG”, the binding signal is 8120 fluorescence intensity (a.u.).

Regarding “GTCTCTCCCGCATCCGCTTCTCCGCTACCTCCCAATAAACCGGAGTCACCTAGTGCAG”, the binding signal was 8090 fluorescence intensity (a.u.).
